# Library screen at single concentrations

The chains behind the UniProt entries cited, without tags or fusion partners. Residues count along the entry.
UniProt P9WNZ1, whole entry: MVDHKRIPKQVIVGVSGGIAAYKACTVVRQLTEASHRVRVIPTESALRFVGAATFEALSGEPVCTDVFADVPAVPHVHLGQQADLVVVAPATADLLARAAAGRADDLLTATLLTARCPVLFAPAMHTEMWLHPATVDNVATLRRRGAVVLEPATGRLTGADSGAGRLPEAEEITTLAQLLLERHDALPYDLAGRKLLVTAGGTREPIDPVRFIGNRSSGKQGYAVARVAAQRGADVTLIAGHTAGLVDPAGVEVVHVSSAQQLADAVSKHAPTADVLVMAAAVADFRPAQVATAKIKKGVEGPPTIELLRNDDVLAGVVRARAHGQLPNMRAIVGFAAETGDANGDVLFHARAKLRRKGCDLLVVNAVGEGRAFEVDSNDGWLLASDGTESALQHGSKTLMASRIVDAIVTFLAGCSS
UniProt I6X8D2, whole entry: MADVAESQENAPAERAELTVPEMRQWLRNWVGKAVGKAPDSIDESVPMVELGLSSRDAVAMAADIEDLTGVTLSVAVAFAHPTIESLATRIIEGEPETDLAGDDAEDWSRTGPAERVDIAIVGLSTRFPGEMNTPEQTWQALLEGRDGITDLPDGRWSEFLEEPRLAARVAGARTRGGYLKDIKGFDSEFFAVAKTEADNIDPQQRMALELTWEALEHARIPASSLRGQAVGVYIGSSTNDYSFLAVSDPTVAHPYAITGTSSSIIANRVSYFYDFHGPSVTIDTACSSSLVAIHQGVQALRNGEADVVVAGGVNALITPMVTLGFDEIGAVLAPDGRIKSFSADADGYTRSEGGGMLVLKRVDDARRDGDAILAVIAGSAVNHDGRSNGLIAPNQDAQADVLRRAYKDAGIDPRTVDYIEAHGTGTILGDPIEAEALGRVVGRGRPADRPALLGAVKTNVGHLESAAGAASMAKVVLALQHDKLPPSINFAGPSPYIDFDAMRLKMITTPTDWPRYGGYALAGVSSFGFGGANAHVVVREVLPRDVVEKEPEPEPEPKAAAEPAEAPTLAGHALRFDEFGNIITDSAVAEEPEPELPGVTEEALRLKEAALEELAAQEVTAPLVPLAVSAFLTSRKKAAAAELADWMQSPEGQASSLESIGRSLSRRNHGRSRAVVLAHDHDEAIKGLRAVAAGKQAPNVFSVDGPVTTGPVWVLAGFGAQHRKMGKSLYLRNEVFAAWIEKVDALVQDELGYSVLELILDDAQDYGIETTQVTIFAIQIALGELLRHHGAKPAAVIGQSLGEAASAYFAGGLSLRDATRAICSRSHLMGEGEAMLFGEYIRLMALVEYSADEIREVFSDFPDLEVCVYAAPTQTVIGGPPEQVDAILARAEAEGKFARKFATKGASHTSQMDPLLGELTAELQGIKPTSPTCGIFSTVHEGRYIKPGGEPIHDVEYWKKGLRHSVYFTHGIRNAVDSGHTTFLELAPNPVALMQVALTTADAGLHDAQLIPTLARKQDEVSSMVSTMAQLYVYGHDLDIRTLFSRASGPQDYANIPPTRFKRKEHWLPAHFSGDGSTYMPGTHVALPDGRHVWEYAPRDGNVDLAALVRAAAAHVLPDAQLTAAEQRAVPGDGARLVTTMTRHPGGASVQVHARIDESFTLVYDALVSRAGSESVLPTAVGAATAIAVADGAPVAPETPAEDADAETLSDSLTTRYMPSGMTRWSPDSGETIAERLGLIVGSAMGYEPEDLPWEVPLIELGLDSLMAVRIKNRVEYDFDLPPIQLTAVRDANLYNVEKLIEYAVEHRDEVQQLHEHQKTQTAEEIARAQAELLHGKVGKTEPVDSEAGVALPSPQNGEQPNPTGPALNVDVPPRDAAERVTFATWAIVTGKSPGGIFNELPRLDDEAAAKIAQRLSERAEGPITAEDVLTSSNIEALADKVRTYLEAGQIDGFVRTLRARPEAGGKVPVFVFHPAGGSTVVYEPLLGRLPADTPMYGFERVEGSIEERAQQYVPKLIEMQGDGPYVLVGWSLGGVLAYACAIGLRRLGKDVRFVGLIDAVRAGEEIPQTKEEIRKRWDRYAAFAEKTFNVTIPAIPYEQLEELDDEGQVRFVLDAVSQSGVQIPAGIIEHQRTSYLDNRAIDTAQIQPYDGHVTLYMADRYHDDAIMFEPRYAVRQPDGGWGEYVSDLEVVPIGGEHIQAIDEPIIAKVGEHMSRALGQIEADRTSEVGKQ
UniProt P9WPC5, whole entry: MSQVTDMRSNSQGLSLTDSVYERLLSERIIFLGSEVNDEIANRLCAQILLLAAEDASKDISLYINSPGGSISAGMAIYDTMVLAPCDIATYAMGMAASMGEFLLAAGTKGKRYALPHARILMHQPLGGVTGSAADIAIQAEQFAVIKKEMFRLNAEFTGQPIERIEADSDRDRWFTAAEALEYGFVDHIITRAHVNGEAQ
UniProt P9WPC3, whole entry partner: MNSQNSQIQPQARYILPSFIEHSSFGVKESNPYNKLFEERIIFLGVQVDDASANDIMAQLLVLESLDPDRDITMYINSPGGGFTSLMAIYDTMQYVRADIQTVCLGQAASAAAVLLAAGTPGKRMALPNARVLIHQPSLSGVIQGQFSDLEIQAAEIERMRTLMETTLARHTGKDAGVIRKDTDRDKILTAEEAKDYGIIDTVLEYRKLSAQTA
UniProt A4I591, 1-473: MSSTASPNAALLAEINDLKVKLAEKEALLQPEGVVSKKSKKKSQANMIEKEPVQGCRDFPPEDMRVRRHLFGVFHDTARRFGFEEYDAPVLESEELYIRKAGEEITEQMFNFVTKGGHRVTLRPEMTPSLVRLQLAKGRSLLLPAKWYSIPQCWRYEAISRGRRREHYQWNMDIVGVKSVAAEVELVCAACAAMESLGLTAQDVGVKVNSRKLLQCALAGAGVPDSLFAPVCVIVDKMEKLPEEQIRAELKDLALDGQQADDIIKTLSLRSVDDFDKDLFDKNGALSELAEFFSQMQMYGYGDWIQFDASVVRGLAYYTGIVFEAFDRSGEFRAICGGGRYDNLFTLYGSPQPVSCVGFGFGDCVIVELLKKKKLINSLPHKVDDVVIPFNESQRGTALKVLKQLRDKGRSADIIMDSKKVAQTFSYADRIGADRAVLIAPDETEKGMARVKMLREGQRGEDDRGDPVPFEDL
UniProt P9WFT3, whole entry: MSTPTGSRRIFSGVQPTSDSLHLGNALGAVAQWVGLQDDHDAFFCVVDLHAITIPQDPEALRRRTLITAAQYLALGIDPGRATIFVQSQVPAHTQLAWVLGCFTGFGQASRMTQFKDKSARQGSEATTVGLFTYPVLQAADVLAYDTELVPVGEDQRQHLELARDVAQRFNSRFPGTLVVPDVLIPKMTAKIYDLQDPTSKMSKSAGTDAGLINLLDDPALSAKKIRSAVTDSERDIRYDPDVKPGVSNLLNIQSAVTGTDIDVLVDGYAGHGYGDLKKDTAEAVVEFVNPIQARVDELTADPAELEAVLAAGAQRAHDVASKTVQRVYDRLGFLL

Data taken from ChEMBL document CHEMBL3988442, “University of Dundee, Small-Polar-MMV Screening Library” (2021).

CoaBC: 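Enzyme assay of CoaBC with a phosphate dye (Biomol Green) read at 650 nm. Target: Coenzyme A biosynthesis protein CoaBC, Mycobacterium tuberculosis (UniProt P9WNZ1). Concentration: 30 µM. Higher reads as stronger inhibition, judged from the few compounds that gave an IC50. Most strong results did not repeat in a second test. Size under these conditions: about 67,000 compounds, about 40 of them at 50% or above in at least one test.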
Pks13 thioesterase: 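Polyketide synthase Pks13, Mycobacterium tuberculosis (UniProt I6X8D2). Enzyme assay of the thioesterase domain of polyketide synthase 13; the read-out is not stated. Compounds at 30 µM. Higher reads as stronger inhibition (inferred from which compounds were picked for retests). About 67,000 compounds were tested under these conditions; 0.46% (about 300) showed 50% or more at least once.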
ClpP1P2: 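Protease assay of ClpP1P2, read by the AMC dye that it sets free. Target: ClpP1P2, Mycobacterium tuberculosis (UniProt P9WPC5 and UniProt P9WPC3). Tested at 50 µM. Direction is inferred from only a few compounds that gave an IC50; most scored high, so higher reads as stronger inhibition. Most other retested compounds had strongly negative values. About 69,000 compounds were tested under these conditions; 0.015% (about 10) showed 50% or more at least once.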
LiHisRS: 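Enzyme assay of histidyl-tRNA synthetase; the read-out is not stated. Target: Histidine-tRNA ligase, Leishmania infantum (UniProt A4I591). Compounds at 30 µM. Direction is inferred from retests: higher values go with stronger inhibition. The assay is labelled LdHisRS but filed under L. infantum. Of about 69,000 compounds tested this way, about 410 (0.6%) reached 50% or more in at least one test.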
MtTrpRS: 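Enzyme assay of tryptophanyl-tRNA synthetase; the read-out is not stated. Target: Tryptophan-tRNA ligase, Mycobacterium tuberculosis (UniProt P9WFT3). Tested at 10 µM. Direction is not recorded; retested compounds ran higher, which suggests that high means inhibition. Of about 65,000 compounds tested this way, about 64 (0.098%) reached 50% or more in at least one test.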

The filed quantity is “Percent Effect” (%).
The record does not define 0% and 100%; most values in the screen are far below 50% and negative numbers occur (in some assays of this library far below -100).
The compounds are a random part of those screened.
A dash means the value is not listed here; it may have been measured.

Compound	CoaBC	Pks13 thioesterase	ClpP1P2	LiHisRS	MtTrpRS
O=C1CN(Cc2cn(CC3CCN(C4CCSCC4)CC3)nn2)CCN1	4.866	-23.54	-7.531	28.89	4.575
CN(C(=O)C1CSCN1S(=O)(=O)c1ccc(F)cc1)C1CC1 (configuration not stated)	1.762	-28.53	2.135	18.87	-2.012
O=C1NCCN(CC2CCCCC2)C1CC(=O)N1CCc2n[nH]cc2C1 (configuration not stated)	2.331	11.15	-22.02	19.61	3.372
CN(Cc1ccccc1)C(=O)Cn1nc(N2CCSCC2)ccc1=O	-2.865	0.4681	3.163	14.61	0.2427
Cc1nc(C2CCCN(C(=O)c3ccco3)C2)no1 (configuration not stated)	2.872	-14.51	-0.4537	-2.703	-1.267
CCc1noc(CS(=O)(=O)Cc2ccccc2C)n1	-10.92	11.61	3.519	-2.564	18.01
CN(C)C(=O)c1cccc(CCNc2ccccc2S(C)(=O)=O)c1	-1.984	-23.38	-2.568	0	-3.159
COc1cccnc1NC(=O)COc1c(C)cccc1C	-1.282	-26.74	1.938	23.29	2.734
CCc1nnsc1C(=O)N1CCCN(Cc2nccn2C)CC1	4.872	-11.51	2.514	-13.33	2.267
Cc1ncc(CC(=O)N2CCCCC2CCN2CCCC2)c(=O)[nH]1 (configuration not stated)	-3.808	-2.27	2.3	17.05	-3.038
Cc1nc(C)n(CC2CCCN(CCOc3cccc(C#N)c3)C2)n1 (configuration not stated)	-1.779	-8.594	14.67	2.381	-7.277
CSCc1cccc(S(=O)(=O)NCCCO)c1	0.9091	1.228	5.662	16.04	-0.08285
CS(=O)(=O)N1CC[C@@H]2O[C@@H](COCC(=O)N3CCCC3)CC[C@@H]21	-1.85	4.145	-3.873	6.452	-1.802
CC(NC(=O)c1cccs1)C(=O)NCc1cccnc1N1CCCCC1 (configuration not stated)	2.41	-10.07	6.206	8.219	-1.839
Cc1cccnc1C(=O)N1CCCC(c2[nH]ncc2S(C)(=O)=O)C1 (configuration not stated)	5.628	-8.964	-10.38	5.714	-4.25
Cc1ccc(C(=O)NCCCNS(C)(=O)=O)c(=O)[nH]1	13.04	-7.257	5.178	13.46	7.129
CC(C)NC(=O)CCNC(=O)Nc1cccc(-c2nccn2C)c1	4.931	-16.77	-0.7815	12.12	-0.277
Cc1cc(N(C)C)nc(C2COCCN2Cc2cscn2)n1 (configuration not stated)	7.306	-20.03	-36.14	6.711	12.19
CN(Cc1cccc(C#N)c1)Cc1nc2c(cnn2C)c(=O)[nH]1	-0.6519	-11.94	-12.1	-0.8772	-4.066
CCc1nsc(NC2CC(=O)N(C(C)(C)C)C2)n1 (configuration not stated)	1.572	-12.1	2.736	1.613	-3.489
Cc1cn2c(n1)CCC(NS(=O)(=O)c1cc(C)sc1C)C2 (configuration not stated)	-0.1218	-6.471	-20.21	1.075	0.2863
CCCN(Cc1cnn(C)c1)S(=O)(=O)c1cc(C)cc(F)c1	-0.1653	-9.804	4.098	0	1.175
CCN(c1ccc(C(=O)NCc2cc[nH]n2)cc1)C(C)C	4.781	-11.2	-8.095	27.4	1.815
NC(=O)c1cccc(CCNCc2cccs2)c1	-2.016	4.46	5.055	7.018	-2.3
CN(Cc1cccc(-n2cccn2)c1)c1cc(N2CCCC2)nc(N)n1	-6.452	-21.56	-3.243	21.05	-3.638
Cn1ccc2c(ccn2CC(=O)Nc2ccc(Br)cc2)c1=O	0.6017	-14.11	1.313	-33.71	29.05
NC(=O)C1CCN(C(=O)c2ccn(-c3ccc(F)cc3)n2)CC1	4.847	-5.416	3.646	-1.818	7.733
CC(C)(C)CCN1CCN(c2snc(Cl)c2C#N)CC1	-1.882	-9.377	-5.743	22.03	-2.287
Cc1ccc(S(=O)(=O)N2C[C@@H]3C[C@@H](NC(=O)C(C)(C)C)[C@@H]3C2)cc1	4.444	-24.63	0.4824	11.11	4.264
O=C(NCc1nc(-c2ncccn2)no1)c1ccc(C2CCCO2)s1 (configuration not stated)	-6.653	-3.581	9.829	6.061	11.3
CCOCC(=O)NCC1(NC(C)c2ccccc2)CCOCC1 (configuration not stated)	-0.609	-8.157	-6.874	16.13	0.4295
Cc1nc(COC[C@H]2CCC[C@]23CN(C2CCOC2)CCO3)cs1 (some centres not stated)	5.071	-16.18	2.286	19.27	4.813
CCCNC(=O)COc1ccc(-c2ccccc2)nc1	7.589	-32.57	-2.001	4.167	-16.82
c1ccc(CN2CCC(Nc3ncnc4c3CCNCC4)C2)cc1 (configuration not stated)	-20	-0.682	-14.01	12.24	2.79
CCCn1nnnc1CN1Cc2ccccc2CC1c1nnc(C)o1 (configuration not stated)	1.786	-24.78	-4.767	5.208	-4.231
CO[C@H]1CN(C(=O)c2cccnc2)[C@@H]2CCCO[C@H]12	4.941	-14.31	0.5009	-0.9174	-5.804
CC(Cc1ccc2c(c1)OCO2)c1cn(CCc2c[nH]cn2)nn1 (configuration not stated)	-	-37.76	-1.266	4.167	6.811
CN(Cc1ccncc1)C1CC2(CCN(c3ncc(F)cn3)CC2)C1	1.018	-8.139	6.406	13.16	-2.344
Cc1cccc(OCCC(=O)N2CCN(CC(=O)NC3CC3)CC2)c1C	2.1	-3.885	-16.31	5.085	-3.209
CCNC(c1ccc(CC)cc1)c1cccnc1 (configuration not stated)	-5.59	-19.26	-9.568	5.263	-3.171

Some entries from above, unchanged:

Compound,CoaBC,Pks13 thioesterase,ClpP1P2,LiHisRS,MtTrpRS
Cc1ccc(S(=O)(=O)N2C[C@@H]3C[C@@H](NC(=O)C(C)(C)C)[C@@H]3C2)cc1,4.444,-24.63,0.4824,11.11,4.264
CN(Cc1cccc(-n2cccn2)c1)c1cc(N2CCCC2)nc(N)n1,-6.452,-21.56,-3.243,21.05,-3.638
Cc1nc(C2CCCN(C(=O)c3ccco3)C2)no1 (configuration not stated),2.872,-14.51,-0.4537,-2.703,-1.267
NC(=O)c1cccc(CCNCc2cccs2)c1,-2.016,4.46,5.055,7.018,-2.3